Results deposited as PubChem BioAssay AID1259405 (NCATS, 2018).

Aim: 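Mouse-designed siRNAs used to find CHO productivity engineering targets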 (primary screen)
System: Chinese hamster CHO-K1 ovary cells with stable secreted eGFP expression
Knock-down reagent: single siRNA against mouse genes, 0.8 pmol siRNA per well (2 µl of 400 nM stock)
Time to read-out: 3 days
Measurement: 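Per-well intracellular GFP measured by laser scanning cytometry, plus viability from ATP luminescence, each relative to plate median of non-targeting control wells, in %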
Direction: GFP, % of control: higher = more GFP per well, higher productivity; viability (ATP), % of control: higher = more viable cells (more ATP)
Call rule: 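Called active when intracellular GFP, relative to negative control, is at or above 120%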
Here is an unselected part of about 50,000 reagents. In the full data, about 4,000 (8%) got an active call. 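Mouse siRNA library applied to hamster cells; one well for each siRNA.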 The numbers tell different reagents against one gene apart.

Silencing of Rnf222 #1 came out at: GFP, % of control 125; viability (ATP), % of control 76; active.
Depletion of Rnf222 #2 gave: GFP, % of control 17; viability (ATP), % of control 20.9; inactive.
With knock-down of Rnf222 #3, the record shows GFP, % of control 32.5; viability (ATP), % of control 35.9; inactive.
After knock-down of Uxt #1 the results were GFP, % of control 82.3; viability (ATP), % of control 74.2; inactive.
Against Uxt #2, the values are GFP, % of control 48.9; viability (ATP), % of control 62.6; inactive.
Depletion of Uxt #3 resulted in: GFP, % of control 67.7; viability (ATP), % of control 87.7; inactive.
After knock-down of Ptpn5 #1, the screen gave GFP, % of control 88.4; viability (ATP), % of control 86.7; inactive.
With knock-down of Ptpn5 #2, the record shows GFP, % of control 123; viability (ATP), % of control 82.9; active.
For Ptpn5 #3, the values are GFP, % of control 103; viability (ATP), % of control 88; inactive.
With knock-down of Rnf2 #1, the record shows GFP, % of control 73.4; viability (ATP), % of control 61.3; inactive.
Rnf2 #2 scored GFP, % of control 54.9; viability (ATP), % of control 107; inactive.
For Rnf2 #3, the values are GFP, % of control 62.8; viability (ATP), % of control 100; inactive.
For Cda #1, the entry reads GFP, % of control 68.4; viability (ATP), % of control 85.1; inactive.
For Cda #2, the entry reads GFP, % of control 105; viability (ATP), % of control 85.2; inactive.
Against Cda #3, the entry reads GFP, % of control 75.7; viability (ATP), % of control 68.2; inactive.
After knock-down of Rufy3 #1 the results were GFP, % of control 56.5; viability (ATP), % of control 65.2; inactive.
For Rufy3 #2, the values are GFP, % of control 86.3; viability (ATP), % of control 87; inactive.
Silencing of Rufy3 #3 gave: GFP, % of control 122; viability (ATP), % of control 75.3; active.

In a second layout: 2 of the entries above
Rnf222 #1
- GFP, % of control: 125
- viability (ATP), % of control: 76
- activity call: active

Rnf222 #2
- GFP, % of control: 17
- viability (ATP), % of control: 20.9
- activity call: inactive
